First the molecules themselves.
B1: tRNA (parent)
chain: GUUCCGUUGGCGUAAUGGUAACGCGUCUCCCUCCUAAGGAGAAGACUGCGGGUUCGAGUCCCGUACGGAACG

This sample is rich in variants without activity.

Variants of B1 are the subject of the series. In words: yeast fitness relative to wild type (ratio to wild type); higher = fitter; tRNA-Arg(CCU), competitive growth, 37 C, YPD. Put shortly:
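Gene amplicons from the start population and from each of six end populations were read by 100-nucleotide paired-end sequencing. Those end populations came from pooled Saccharomyces cerevisiae strains carrying tRNA-Arg(CCU) gene variants at the native locus, competed in YPD at 37°C for 24 hours. Fitness relative to wild type was worked out from changes in genotype frequencies. Genotypes needed ≥ 100 starting reads, and estimates < 0.5 were set to 0.5.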
With U3A G9A U19A G50A C55A C66A, the yeast fitness is at most 0.5.
Consider A15U C30G C34U C66U A70C, for which the yeast fitness is 0.511.
Take A21G C33G G38A A57U C62U: the yeast fitness was at most 0.5.
As for A14G A57C G67C, the yeast fitness was at most 0.5.
To A14U C60G A70C belongs at most 0.5; to C5U G9C C11G C24A U26G, at most 0.5.
Next, A43C C66G A69U: at most 0.5; U13A A40G U47G G63C: 0.535; G23C C34G: at most 0.5.
Next, U13A A21C G38A G44C U54A: at most 0.5.
With U3A C4G U8A C24G G52A, the yeast fitness is at most 0.5.
To U2G C5A U19A C30G A43C G50A C55U belongs at most 0.5.
With C4G C22G C33U A36C A40U C62A, the yeast fitness was at most 0.5.
Next, C11U A15U C34A G39C A40C G56C C61G C62G G68C: at most 0.5; C22U G23C U26C C30A G52A: at most 0.5; U7A C24U U28G C33G C34U A36G A40G: at most 0.5.
Take A21U A45C G50C U64C: the yeast fitness was at most 0.5.
In the case of U2A G12A A20U A40C, the yeast fitness was at most 0.5.
Next, U28G A57U U59C: at most 0.5; U2C A42C G63A C66U: at most 0.5; U13A A15G C29G C30G C49A G56C C61U: at most 0.5.
On to G18C C31A C61G, for which the yeast fitness is at most 0.5.
On to G10A A14G U32C, for which the yeast fitness is at most 0.5.
Regarding C5G C30U U54A, the yeast fitness amounted to 0.601.
In the case of U3C A40U A69U, the yeast fitness turned out to be 0.755.
To A14U G44C G50A belongs at most 0.5; to U7G G48A C62U, 0.628; to U13C C22A, 0.791.
Turning to C22G U64C, the yeast fitness is 0.856.
Regarding C49G U53C, the yeast fitness came out at 0.723.
Next, C4U U7G C34G C49A: at most 0.5.
Next, A14G C24G C31U C55G G63C: at most 0.5.
Next, U3C U8A A15C C31G C49U A57U G67C: at most 0.5.
A14G G18C C60A C66U: the yeast fitness was at most 0.5.
With G18A C33U G44A C62G, the yeast fitness is at most 0.5.
For G17C U26G G39C A40U A70U, the yeast fitness was at most 0.5.
With U8G C29A, the yeast fitness is at most 0.5.
Next, C4A C29U G50A C66A: at most 0.5; U13A A15G G48A G63A A65C: at most 0.5.
To G10C A14U U19A C22U A36G belongs at most 0.5; to C5G C11G A14U A15U C29A C60G, at most 0.5.
Turning to G12A U13G G23C C24G C29G A36C C60U, the yeast fitness was at most 0.5.
To A21U C34G C49G C61U A69G belongs at most 0.5; to G39C C46U G56A, 0.694; to A20C C31U G68A, at most 0.5.
With C4A C11U U32A G38C U47A U53G, the yeast fitness came out at 0.56.
G10A A21C A40G U47G C62G A69U: the yeast fitness was at most 0.5.
Next, C24A C61U G68C: at most 0.5.
For the variant G9C U13A A20U C34A U59A, the yeast fitness is at most 0.5.
Turning to U8A A42U C62G, the yeast fitness was at most 0.5.
Regarding A20U C27G C29A G51C U53A, the yeast fitness was at most 0.5.
Turning to C29A A43U G67A, the yeast fitness was at most 0.5.
Next, C46U C61U: 0.956.
C30A G50A C55G: the yeast fitness is at most 0.5.
As for C11G C29U C61A, the yeast fitness was at most 0.5.
Consider C27G A45C G58C, for which the yeast fitness stood at 0.644.
Take C27A A57U C60A: the yeast fitness was at most 0.5.
U28C A42C A43C C55G A57G: the yeast fitness was at most 0.5.
C4G A37C U59G: the yeast fitness was at most 0.5.
In the case of C4G A20G C22G C33U A36C A40U, the yeast fitness was at most 0.5.
Next, C24G G41C G68C: 0.592; C22G A37G C49A: at most 0.5; A42U G50A C60G: 0.614.
Regarding A20C C24U A40G A42U G50A G51C A70C, the yeast fitness was at most 0.5.
Next, C31A G50C: 0.566.
Consider U16A U32C A37U C49G A70U, for which the yeast fitness is at most 0.5.
As for A15G A21G C29G C55A, the yeast fitness is at most 0.5.
For C24G A36U A42C C55U, the yeast fitness is at most 0.5.
Regarding A37G U54A U59A, the yeast fitness is at most 0.5.
On to A21U U53C U54G, for which the yeast fitness was at most 0.5.
To U13C A43U A70G belongs 0.966.
Turning to G9U C27U C29A, the yeast fitness was at most 0.5.
Next, G18C C61A C62U A65U A69C: at most 0.5; C31U U47C: 0.934; G6A A15C U16A A21G U26A C30U C61A A69U: at most 0.5.
On to A40C C49G, for which the yeast fitness came to 0.804.
In the case of C11G C29U G52A, the yeast fitness is at most 0.5.
For the variant C4A A20G A45U C46G C60A, the yeast fitness is at most 0.5.
Regarding U7A C27U A69C, the yeast fitness was 0.649.
On to C29A C31U U64C, for which the yeast fitness is at most 0.5.
Consider G10C A43U G63C C66A, for which the yeast fitness was at most 0.5.
C4U C24A U47G G58A: the yeast fitness was at most 0.5.
Regarding G63C G67C A69U, the yeast fitness is at most 0.5.
As to A14G C31U A36C G39C C55U A57U, the yeast fitness is at most 0.5.
As to C34A A36U A45U, the yeast fitness is at most 0.5.
With G12C G18C G50C, the yeast fitness is at most 0.5.
For the variant C29G G48A G56A A69U, the yeast fitness was at most 0.5.
In the case of U7C G67U, the yeast fitness was 0.847.
C11U A20U U54C C55G: the yeast fitness is at most 0.5.
C33U G52C U53G U59G C61A: the yeast fitness is at most 0.5.
To C5U U26G G58A belongs 0.924.
To G18A A65C belongs 0.759; to A14G U32A G39A U54A, at most 0.5; to G9C C29G C34G C62A C66U, at most 0.5.
Regarding U2C A15C C24A G41C, the yeast fitness is at most 0.5.
For the variant C24G A42U A45G, the yeast fitness was at most 0.5.
Next, G18A U35A A40G A69C: at most 0.5; C30G C33A G38U: at most 0.5; U26A G41A A43C A57G: at most 0.5.
As for G9A U53A A70G, the yeast fitness is at most 0.5.
For the variant U7C G41A A42C G50C C60U, the yeast fitness was at most 0.5.
For the variant U2C G63A, the yeast fitness turned out to be 0.799.
As for U16C C33U A36U A42U U64C, the yeast fitness is at most 0.5.
In the case of U26A C33G C46U C55G C66A, the yeast fitness is at most 0.5.
In the case of G25C C29U G68U A70C, the yeast fitness was at most 0.5.
To A21U C46G C62A belongs at most 0.5; to C27A C31U A43G U54C C61U A65C, at most 0.5; to G56C A70U, 0.83.
As to C33U C34U C66A A70C, the yeast fitness was at most 0.5.
To A45C U59G belongs 0.713; to G25C C34G C61U, at most 0.5; to C22U U28C C34A A40U C60U, at most 0.5.
Regarding C4A A36U A37C G38A U47C A70U, the yeast fitness is at most 0.5.
Regarding C5G A36U G41A A65U, the yeast fitness turned out to be 0.549.
As for U28A G50C C66A, the yeast fitness is at most 0.5.
As for U32C G58A C66A, the yeast fitness was at most 0.5.
With U26G C29G C30A A36G, the yeast fitness was at most 0.5.
U26C U28A C61A: the yeast fitness was at most 0.5.
To C4G U8C U59G belongs at most 0.5; to C4U C24U U54A, at most 0.5.
With A20G C34G U47C C49G C61U A69G, the yeast fitness is at most 0.5.
Take C11U U19A C27U U59A A65C G67U: the yeast fitness was at most 0.5.
Take C11U C33G G48C: the yeast fitness is at most 0.5.
Next, G38C C62U A65G A70U: at most 0.5.
For the variant C11U G25A C29U G50A A70C, the yeast fitness is at most 0.5.
To C61A C62U A65U A69C belongs 0.52; to G6A C11U C27A U28A A40G, at most 0.5; to U2G G39C C66A, at most 0.5.
As to G17A C22G C29U G51C C55G, the yeast fitness is at most 0.5.
Take C24G A43C G48A: the yeast fitness was at most 0.5.
In the case of C4U U26C A42U G50C A65U, the yeast fitness was determined as 0.552.
To C5U A15C C22G C31A belongs at most 0.5.
G17C C55U G68C: the yeast fitness was at most 0.5.
To C11U C22G C30U U54C belongs at most 0.5.
U8C G17A A20C C24U C61U: the yeast fitness is at most 0.5.
Turning to C11U A43G A57U, the yeast fitness was 0.568.
C11U C31A A45C: the yeast fitness was at most 0.5.
Regarding U32G A45G C49U A70U, the yeast fitness was at most 0.5.
To U8A G17A C22U belongs 0.607; to C11A G12C U26C, at most 0.5.
Next, C11U A15G U32A C61G C62U A69U: at most 0.5; U28C C34A C49G G51C U53C: at most 0.5.
Next, U13A C33U G51U G52C A65G: at most 0.5; G10C A57G A65G A70G: at most 0.5.
As to A15G A21C C24G A40U A57G U64A, the yeast fitness is at most 0.5.
As to U16G G25C C33A, the yeast fitness is at most 0.5.
C5G C46A G48A U64G: the yeast fitness was 0.546.
C24U U28C C62G: the yeast fitness was at most 0.5.
As to C5U A14U C30U G39C, the yeast fitness is at most 0.5.
Turning to C27U A42G U47A C66U, the yeast fitness was at most 0.5.
G18A C46U G50U C60G A70G: the yeast fitness is at most 0.5.
Next, G18C U19G C27U A43U A65U: at most 0.5; U2C U3C U19A U64A: at most 0.5; G17C U35A G39A C55G C60U G67C: at most 0.5.
For the variant G41C C49A A70C, the yeast fitness was at most 0.5.
To C24U C34A C55G belongs at most 0.5; to A20U C31A A57G U64G C66A, at most 0.5; to G44C C61G A65C A70C, at most 0.5.
As for G6A C29A A69C A70U, the yeast fitness is at most 0.5.
Consider G23C C27G C31A A45U, for which the yeast fitness was at most 0.5.
As to C5G G25A C46A, the yeast fitness is 0.651.
Consider U3G C5U G10A G18C C24U A45C, for which the yeast fitness was found to be 0.553.
For U16A C22G C34U U64A A65C, the yeast fitness is at most 0.5.
Turning to U3C C22G C27A, the yeast fitness was at most 0.5.
On to A36C A37U C66A, for which the yeast fitness was at most 0.5.
Take C31G U59C C62U G68U: the yeast fitness was at most 0.5.
Turning to C49A C60G A70C, the yeast fitness was at most 0.5.
